Results on 2 substances are retold here after patent US6569993 (dated 2003).

The nature of the data set: general procedure: hybrid (solid and solution phase) peptide synthesis; chlorotrityl resin, Rink acid resin and Rink amide resin (preferred); Gly-2-chlorotrityl resin 0.6 meq/g for the fragmen; PyBOP/hydroxybenzotriazole hydrate/diisopropylethyl amine; HBTU/N-methylmorpholi. Particulars: whole synthesis.

For “Fmoc-cyclo(Lys-Asp)Lys-Glu(OtBu)-Arg(Pmc)-Val-Asp-OH”, the “final purity (method not given)” value (HPLC area % (UV at 210 nM)) stood at 85A %. This substance returned an isolated yield (on resin) of 15% yield based on resin. Besides, for the setting “stoichiometric”, the crude yield is 41% stoich. yield, crude.
For the substance “Fmoc-Ala-Val-Ser(OtBu)-Glu(OtBu)-Ile-Gln(Trt)-Leu-Nle-His(Trt)-Asn(Trt)-Leu-Gly-OH”, the “crude HPLC purity” value (HPLC area % (UV at 210 nM)) amounted to 83A %. This substance showed a crude yield (from resin) of 70% yld. from resin.
